## Percent effect of library compounds

Protein sequences, listed by entry. Tags and fused reporters are not part of them.
UniProt P9WFT3, whole entry: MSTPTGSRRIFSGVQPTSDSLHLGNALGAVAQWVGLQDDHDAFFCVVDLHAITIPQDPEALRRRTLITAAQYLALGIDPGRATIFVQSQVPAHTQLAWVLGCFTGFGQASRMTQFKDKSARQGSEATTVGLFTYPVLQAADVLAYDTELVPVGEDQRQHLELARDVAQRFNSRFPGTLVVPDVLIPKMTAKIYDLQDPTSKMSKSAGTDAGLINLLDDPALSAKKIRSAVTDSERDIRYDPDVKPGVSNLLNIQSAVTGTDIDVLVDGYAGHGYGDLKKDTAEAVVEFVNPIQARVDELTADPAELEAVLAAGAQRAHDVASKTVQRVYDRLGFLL

MtTrpRS: 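Enzyme assay of tryptophanyl-tRNA synthetase; the read-out is not stated. Target: Tryptophan-tRNA ligase, Mycobacterium tuberculosis (UniProt P9WFT3). Compounds at 10 µM. Higher most likely means stronger inhibition; the record gives no direction and few retests gave an IC50. Size under these conditions: about 65,000 compounds, about 64 of them at 50% or above in at least one test.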
Leishmania in macrophages: 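Cell assay of Leishmania donovani living inside macrophages; the read-out is not stated. Compounds at 30 µM. The record gives no direction; compounds that gave an IC50 in retests scored well above the rest, so higher reads as stronger inhibition. Of about 69,000 compounds tested this way, about 1,000 (1.5%) reached 50% or more in at least one test.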

Results are given as percent effect.
The record does not define 0% and 100%; most values in the screen are far below 50% and negative numbers occur (in some assays of this library far below -100).
Compounds were drawn at random from those tested, without regard to their results.
Two or more numbers in one place are separate tests of the same structure; such repeats can differ widely.
A dash means the value is not listed here; it may have been measured.

| compound | MtTrpRS | Leishmania in macrophages |
|---|---|---|
| `CCn1cc(CN2CCC3(CC2)c2ccccc2CC3O)cn1` (centres undefined) | 0.6101% | 14.03% |
| `O=C(NCc1ccco1)c1ccc(N2CCOCC2)cc1` | 1.183% | 12.88% |
| `CC(=O)N1CCC2(CC1)CN(C)CC[C@H]2C(F)(F)F.Cl` | - | 26.97% |
| `Nc1nccc(N2CCNC(C(=O)NCc3ccccn3)C2)n1` (centres undefined) | 1.559% | -1.171% |
| `Cc1nc(C)c(C(C)NCc2cnc(N3CCOCC3)nc2)s1` (centres undefined) | 3.265% | - |
| `Cc1nn(C)c2cnn(Cc3ccc(C(=O)NCC4CC4)o3)c12` | 1.38% | -7.009% |
| `CCc1ccc(CN2CCc3c(nnn3C)C2COC)cc1` (centres undefined) | -4.758% | - |
| `COCC(C)(C)NC(=O)CC(c1ccccc1)C(F)(F)F` (centres undefined) | -4.741% | 2.016% |
| `Fc1ccc(F)c(CN2CCC(c3cc4ncccc4cn3)CC2)c1` | 0.7473% | - |
| `CCNc1ncc(C(=O)NCC2OCCc3ccccc32)cn1` (centres undefined) | -2.952% | 5.365% |
| `COc1cc(CNC2CCc3nc(C)nn3C2)cc2c1OCCO2` (centres undefined) | 2.437% | -2.739% |
| `COc1ccc(-c2cnc(N(C)C)nc2C2CNCCO2)cc1` (centres undefined) | -7.668% | - |
| `O=C1CCCCN1Cc1cccc(OC(F)F)c1` | -0.9266% | 12.23% |
| `Cc1nc([C@@H]2C[C@@H]3CCN(C(=O)Cc4cccs4)C[C@H]3O2)no1` | 1.046% | - |
| `CN(Cc1cc2cc(F)ccc2[nH]1)C(=O)C1CC(=O)N(C2CCCC2)C1` (centres undefined) | 3.295% | 9.704% |
| `Cc1cnn(CC(=O)NCC2(O)CCCc3ccccc32)c1` (centres undefined) | 4.759% | -23.95% |
| `CS(=O)(=O)CCN1CCc2c(ncn2C2CC2)C1` | 2.007% | -43.08% |
| `O=C(NC[C@]12COC[C@H]1CN(Cc1ccncc1)C2)c1ccno1` | -0.5307% | - |
| `COc1cc(C)c(S(=O)(=O)CC(=O)N(C)C2CC2)cc1OC` | -0.6415% | -27.85% |
| `CCOCC(=O)NCCCn1ccnc1-c1ccccc1` | 3.099% | -14.62% |
| `Cc1noc(C)c1CN1CCN(CCN(C)C)c2ncccc2C1.O=C(O)C(F)(F)F.O=C(O)C(F)(F)F.O=C(O)C(F)(F)F` | - | 12.42% |
| `Brc1ccc(-c2nnc(CN(Cc3cccs3)CC3CCCO3)o2)s1` (centres undefined) | -4.558% | 20.9% |
| `Cc1ccc(N2CC3(COCCN(Cc4ccccn4)C3)OCC2=O)s1` (centres undefined) | -2.948% | - |
| `CC(C)NC(=O)[C@H]1C[C@@H]2CN(C(=O)NCc3ccccc3)C[C@H]1O2` | 1.569% | - |
| `CCN1CCN(C(=O)Cc2ccc(S(=O)(=O)C(F)F)cc2)CC1` | 18.52% | -1.529% |
| `CNC(=O)[C@@H](c1ccccc1)N1CCC[C@H]1C(=O)NCc1ccccn1.Cl.Cl` | - | 12.4% |
| `COc1ccc2nc(NC(=O)c3c(C(=O)O)cnn3C)sc2c1` | -2.304% | -8.012% |
| `Cc1nn(C)c2c(=O)n(C)c(NCC3CCCO3)nc12` (centres undefined) | -0.2447% | 5.696% |
| `Cc1nc(Nc2cnccn2)cc(C2CCN(CCO)C2)n1.O=CO` (centres undefined) | - | 13.93% |
| `CSC(C)CCN1CCC(n2cc(C3CCCCC3)nn2)CC1` (centres undefined) | -2.183% | 24.65% |
| `CN1CCN(Cc2ccoc2)Cc2cccnc21` | 1.246% | -10.19% |
| `CN(C)Cc1nc2c(o1)CN(S(=O)(=O)c1cccs1)C2.O=C(O)C(F)(F)F` | - | 22.68% |
| `Cc1nc(C(C)NC(=O)c2cn(CCC3CCCCC3)nn2)n[nH]1` (centres undefined) | 1.232% | -8.207% |
| `CC(=O)NC(C)c1ccc(OCC2CC2)c(F)c1` (centres undefined) | 0.9534% | 1.983% |
| `CCC(C)n1c(SCC(=O)N2CCOCC2)nc2cc(C)[nH]c2c1=O` (centres undefined) | -1.84% | 20.67% & 32.75% |
| `OCc1cc2ccccc2nc1NC1CC=CC1` | 0.9518% | 8.588% |
| `CN(C)CCNC(=O)c1cc(-c2cnc(N3CCOCC3)nc2)cn1C` | -2.815% | - |
| `OC(CNCCn1cccn1)c1ccc2c(c1)OCCO2` (centres undefined) | -0.5912% | 2.21% |
| `Cc1n[nH]c(C)c1CCC(=O)NCC1(O)CCN(c2ccccn2)C1` (centres undefined) | -7.381% | 31.91% |
| `CN(C)CCNc1ncccc1CNC(=O)Nc1cc(F)cc(F)c1` | -1.65% | 9.46% |
| `O=C(NC1CC2(CCN(CCO)CC2)c2ccccc21)c1ccncc1.O=C(O)C(F)(F)F.O=C(O)C(F)(F)F` (centres undefined) | - | 11.1% |
| `CCOc1cc(C(=O)N2CCCC(c3noc(C(C)C)n3)C2)ccn1` (centres undefined) | -3.888% | 1.895% |
| `CN(CCc1ccccn1)[C@@H]1CCN(c2cccc(C#N)n2)C[C@H]1O` | -1.639% | 7.828% |
| `[H][C@@]12COC[C@@H](CC(=O)NCc3cnc(C)cn3)[C@]1([H])CN(C1CCC1)C2` | - | -14.6% |
| `Cn1cc(C(=O)N2CCC(Cc3nccs3)CC2)cn1` | -6.417% | -3.53% |
| `CCn1cnnc1CNC(=O)N(C)Cc1ccccc1OC` | 7.71% | 42.5% |
| `CCC(CC)NC(=O)c1ncn2c1CN(CC)S(=O)(=O)c1ccccc1-2` | -4.362% | - |
| `CCc1ccc(C(=O)NC(C)c2ccc(S(C)(=O)=O)c(F)c2)o1` (centres undefined) | 8.178% | -4.784% |
| `Cc1ccsc1[C@@H]1CCN(C(=O)CCOc2ccccc2)C[C@H]1O` | -0.7229% | 5.104% |
| `O=C(O)c1ccc2c(c1)C1(CCCCC1)CN2C(=O)c1cccs1` | -2.278% | 4.011% |
| `CCc1nccn1C1CCCN(C(=O)c2cnc3ccccc3n2)C1` (centres undefined) | 0.5297% | 35.97% |
| `C[C@@H]1CN(Cc2cc(C(F)(F)F)ccc2F)CC[C@@]1(O)C1CC1` | -0.2075% | 22.27% |
| `O=C(O)C(c1cccc2c1OCC2)N1CCC(N2CCCC2)CC1` (centres undefined) | 5.038% | 10.6% |
| `COC1CCN(c2ccc(F)cc2CN(C)S(C)(=O)=O)CC1` | 4.063% | -13.05% |
| `CCC1(C)Cc2ccccc2-c2nc(NCCO)nc(O)c21` (centres undefined) | 2.249% | 23.51% & 4.485% |
| `CN(C)S(=O)(=O)NC1CC(=O)N(c2ccccc2Cl)C1` (centres undefined) | 1.214% | 44.21% |
| `COc1cc(OC)cc(-c2noc(CN)n2)c1` | 12.21% | -53.77% |
| `Cc1oncc1C(=O)N1CCC2(CCN(Cc3cccc(F)c3)C2=O)C1` (centres undefined) | 6.537% | -33.51% |
| `NC(=O)C1CCN(C(=O)NCc2cccnc2OC2CCCC2)C1` (centres undefined) | -8.796% | 19.37% |
| `O=C(O)C(F)(F)F.[H][C@@]12CCN(C(=O)c3ncccn3)C[C@]1(COc1ccccn1)CCO2` | - | -5.593% |
| `COCCN(C)C(=O)Nc1ccc2c(ccn2CCOC)c1` | 15.57% | 12.14% |
| `CCc1n[nH]c(C2CN(C(=O)c3ncoc3CC)CCO2)n1` (centres undefined) | 1.015% | 24.15% |
| `CC(C(=O)N1CCCC1)n1nc(-c2cccs2)cc(N)c1=O` (centres undefined) | -1.339% | 15.96% |
| `Cc1cc(C(F)F)nn1C(C)C(=O)NCc1nccn1C` (centres undefined) | -8.311% | 12.96% |
| `Cn1ccc(CN2CCN(CC3CC3)CC2)cc1=O` | 16.87% | 13.69% |
| `O=C(c1ccnnc1)N1CCO[C@H]2[C@@H](OCc3cccnc3)CC[C@@H]21` | -2.441% | - |
| `COc1cccc(CC(C)NC(=O)NCCNC(C)=O)c1` (centres undefined) | 2.397% | -4.874% |
| `CC(C)N1C(=O)CN(CCOCCO)CC1(C)C` | -3.574% | 7.934% |
| `CC(C)N(C)C(=O)C1=NOC2(CCN(C(=O)c3ccccn3)C2)C1` (centres undefined) | 0.7401% | 0.7104% |
| `O=C(NCCC1=CCCCC1)NCc1nnc2n1CCC2` | -3.801% | 18.55% |
| `CC1=Nc2c(c(O)nn2C(C)C)C(c2cccnc2)S1` (centres undefined) | 7.878% | -29.37% |
| `CC(C)N(Cc1ccc(C#N)cc1)C(=O)Nc1ccncc1` | -4.964% | 16.49% |
| `COCCOC[C@]1(CNCc2ccc(OC)cc2)C[C@@H](O)[C@@H](O)C1.Cl` | - | 4.474% |
| `[H][C@@]12COC[C@]1(COCc1ccncc1)CN(C(=O)C1=CCCC1)C2` | - | 28.44% |

4 of the entries, repeated:

compound,MtTrpRS,Leishmania in macrophages
CCC(CC)NC(=O)c1ncn2c1CN(CC)S(=O)(=O)c1ccccc1-2,-4.362%,-
Cc1cc(C(F)F)nn1C(C)C(=O)NCc1nccn1C (centres undefined),-8.311%,12.96%
COc1cc(C)c(S(=O)(=O)CC(=O)N(C)C2CC2)cc1OC,-0.6415%,-27.85%
O=C(NCCC1=CCCCC1)NCc1nnc2n1CCC2,-3.801%,18.55%

Data taken from ChEMBL document CHEMBL3988442, “University of Dundee, Small-Polar-MMV Screening Library” (2021).